US6630135B1, “Use of sustained release antibiotic compositions in ophthalmic surgical procedures” (Alcon Laboratories, Inc., priority 1993, dated 2003)

Assay: Ocular tissue drug concentration after topical dosing of rabbit eyes (HPLC)
Assay type: in vivo, New Zealand albino rabbit
Details: at one hour after topical administration of 0.3% in a single dose
Protocol: New Zealand albino rabbit eyes were selected for evaluation of ciprofloxacin with enhanced sustained vehicle. The following formulations were tested: The route of administration was topical. The rabbits received 30 microliters of either the gel or solution formulations in both eyes. At the end of the study, the aqueous humor and cornea were collected and assayed by high performance liquid chromatography to determine the amount of drug present.

## O=C(O)c1cn(C2CC2)c2cc(N3CCNCC3)c(F)cc2c1=O [Ciprofloxacin]
  maximum concentration in the aqueous humor: 0.69 µg/g
